{"source": "the supplement of paper PMC4683952", "note": "Counter-ions that a name gives are not always drawn. In all, about 1,200 compounds went through this assay and about 50 (4%) showed activity. No stated cut-off is given here; in the data, all actives reach 1.3 or more but so do some inactives. This is one part of the list."}
{"system": "Lgr5 (MarsCy1-Lgr5-EGFP, U2OS)", "experiment": "cell-surface Lgr5 expression (SCi1 fluorescence, background-subtracted) relative to WT DMSO (fold of DMSO control); higher = more Lgr5 at the plasma membrane, active = hit call of the paper", "details": "U2OS MarsCy1-Lgr5-EGFP stable; treatment time: overnight; 16 µM; library: Johns Hopkins Clinical Compound Library"}
{"smiles": "OB1OO1", "note": "[Sodium perborate tetrahydrate]", "cell-surface Lgr5 expression": "inactive: 0.895"}
{"smiles": "COc1cc2c(c(OC)c1OC)-c1ccc(OC)c(=O)cc1[C@@H](NC(C)=O)CC2", "note": "[Colchicine]", "cell-surface Lgr5 expression": "inactive: 1.37"}
{"smiles": "CCN(CC)C(=O)N[C@H]1C[C@@H]2c3cccc4[nH]cc(c34)C[C@H]2N(C)C1", "note": "[S(+)-Terguride]", "cell-surface Lgr5 expression": "inactive: 1.14"}
{"smiles": "CC1C=CC=CCCC=CC=CC=CC=CC(OC2OC(C)C(O)C(N)C2O)CC2OC(O)(CC(O)C(O)CCC(O)CC(O)CC(O)CC(=O)OC(C)C(C)C1O)CC(O)C2C(=O)O", "note": "(centres undefined) [Nystatin]", "cell-surface Lgr5 expression": "inactive: 0.877"}
{"smiles": "CC[N+]1(C)CCCC(OC(=O)C(O)(c2ccccc2)c2ccccc2)C1", "note": "(centres undefined) [Pipenzolate bromide]", "cell-surface Lgr5 expression": "inactive: 1.07"}
{"smiles": "c1ccc2c(c1)OCC(C1=NCCN1)O2", "note": "(centres undefined) [Idazoxan hydrochloride]", "cell-surface Lgr5 expression": "inactive: 1.21"}
{"smiles": "CCCN1CCC[C@@H]2Cc3n[nH]cc3C[C@H]21", "note": "[Quinpirole dihydrochloride]", "cell-surface Lgr5 expression": "inactive: 1.08"}
{"smiles": "CC(C)c1cccc(C(C)C)c1O", "note": "[Propofol (2,6-diisopropylphenol)]", "cell-surface Lgr5 expression": "inactive: 0.99"}
{"smiles": "Oc1ccc2c3c1O[C@H]1[C@@H](O)CC[C@@]4(O)[C@@H](C2)N(CC2CCC2)CC[C@]314", "note": "[Nalbuphine]", "cell-surface Lgr5 expression": "inactive: 1.17"}
{"smiles": "COC1=CC(=O)O[C@@H](/C=C/c2ccccc2)C1", "note": "[Kavain]", "cell-surface Lgr5 expression": "inactive: 1.05"}
{"smiles": "O=C1C2CC=CCC2C(=O)N1SC(Cl)(Cl)Cl", "note": "(centres undefined) [Captan]", "cell-surface Lgr5 expression": "inactive: 1.07"}
{"smiles": "CCCCCCCCCC(=O)O[C@H]1CC[C@H]2[C@@H]3CCC4=CC(=O)CC[C@@H]4[C@H]3CC[C@]12C", "note": "[Nandrolone decanoate]", "cell-surface Lgr5 expression": "inactive: 0.905"}
{"smiles": "COc1cc(C2c3cc4c(cc3C(O)C(CO)C2C(=O)O)OCO4)cc(OC)c1OC.COc1cc(C2c3cc4c(cc3C(O)C(CO)C2C(=O)O)OCO4)cc(OC)c1OC.COc1cc(C2c3cc4c(cc3C(O)C3COC(=O)C23)OCO4)cc(OC)c1OC.COc1cc(C2c3cc4c(cc3C(O)C3COC(=O)C23)OCO4)cc(OC)c1OC", "note": "(centres undefined) [Podophyllum resin]", "cell-surface Lgr5 expression": "active: 1.55"}
{"smiles": "C=C1CC[C@@]2(O)[C@H]3Cc4ccc(O)c5c4[C@@]2(CCN3CC2CC2)[C@H]1O5", "note": "[Nalmefene]", "cell-surface Lgr5 expression": "inactive: 1.22"}
{"smiles": "CC(N)C(O)c1ccccc1", "note": "(centres undefined) [Norephedrine Hydrochloride (Phenylpropanolamine)]", "cell-surface Lgr5 expression": "inactive: 1.19"}
{"smiles": "COc1ccccc1OC", "note": "[Veratrole]", "cell-surface Lgr5 expression": "inactive: 0.751"}
{"smiles": "NCC1(CC(=O)O)CCCCC1", "note": "[Gabapentin]", "cell-surface Lgr5 expression": "inactive: 0.883"}
{"smiles": "CNC(=O)Oc1cccc2ccccc12", "note": "[Carbaryl (Carbaril)]", "cell-surface Lgr5 expression": "inactive: 0.718"}
{"smiles": "CC(O)(CS(=O)(=O)c1ccc(F)cc1)C(=O)Nc1ccc(C#N)c(C(F)(F)F)c1", "note": "(centres undefined) [Bicalutamide (Casodex)]", "cell-surface Lgr5 expression": "inactive: 1.11"}
{"smiles": "CCC1(c2ccc(N)cc2)CCC(=O)NC1=O", "note": "(racemic) [(+-)-p-Aminoglutethimide]", "cell-surface Lgr5 expression": "inactive: 1.35"}
{"smiles": "C[C@@H]1C[C@@H]([C@H](O)CC2CC(=O)NC(=O)C2)C(=O)[C@@H](C)C1", "note": "[Cycloheximide]", "cell-surface Lgr5 expression": "inactive: 0.313"}
{"smiles": "CN1[C@@H]2CC[C@H]1C[C@@H](OC(=O)c1cc(Cl)cc(Cl)c1)C2", "note": "[Bemesetron (MDL-7222)]", "cell-surface Lgr5 expression": "inactive: 1.18"}
{"smiles": "O=C(O)c1nn(Cc2ccc(Cl)cc2Cl)c2ccccc12", "note": "[Lonidamine]", "cell-surface Lgr5 expression": "inactive: 1.14"}
{"smiles": "Cc1cc(C(C#N)c2ccc(Cl)cc2)c(Cl)cc1NC(=O)c1cc(I)cc(I)c1O", "note": "(centres undefined) [Closantel]", "cell-surface Lgr5 expression": "inactive: 1.11"}
{"smiles": "CCCCOC(=O)c1ccccc1C(=O)OCCCC", "note": "[Dibutyl phthalate]", "cell-surface Lgr5 expression": "inactive: 0.671"}
{"smiles": "ClC(Cl)=C(Cl)Cl", "note": "[Tetrachloroethylene]", "cell-surface Lgr5 expression": "inactive: 1.18"}
{"smiles": "COc1ccc2c(c1O)-c1cccc3c1[C@@H](C2)N(C)CC3", "note": "[Apocodeine]", "cell-surface Lgr5 expression": "inactive: 1.01"}
{"smiles": "CC[C@H](C)[C@H]1O[C@]2(C=C[C@@H]1C)C[C@@H]1C[C@@H](C/C=C(\\C)[C@@H](O[C@H]3C[C@H](OC)[C@@H](O[C@H]4C[C@H](OC)[C@@H](O)[C@H](C)O4)[C@H](C)O3)[C@@H](C)/C=C/C=C3\\CO[C@@H]4[C@H](O)C(C)=C[C@@H](C(=O)O1)[C@]34O)O2.CO[C@H]1C[C@H](O[C@H]2[C@H](C)O[C@@H](O[C@@H]3/C(C)=C/C[C@@H]4C[C@@H](C[C@]5(C=C[C@H](C)[C@@H](C(C)C)O5)O4)OC(=O)[C@@H]4C=C(C)[C@@H](O)[C@H]5OC/C(=C\\C=C\\[C@@H]3C)[C@]54O)C[C@@H]2OC)O[C@@H](C)[C@@H]1O", "note": "[Abamectin]", "cell-surface Lgr5 expression": "inactive: 1.15"}
{"smiles": "BrC(Br)Br", "note": "[Bromoform]", "cell-surface Lgr5 expression": "inactive: 1.02"}
{"smiles": "O=C(O)CCCc1ccc(N(CCCl)CCCl)cc1", "note": "[Chlorambucil]", "cell-surface Lgr5 expression": "inactive: 1.14"}
{"smiles": "[S]=[Sb][S][Sb]=[S]", "note": "[Antimony (III) sulfide]", "cell-surface Lgr5 expression": "inactive: 1.26"}
{"smiles": "NC(=O)CN1CC(O)CC1=O", "note": "(centres undefined) [Oxiracetam]", "cell-surface Lgr5 expression": "active: 1.36"}
{"smiles": "[O-][Cl+3]([O-])([O-])O", "note": "[Potassium perchlorate]", "cell-surface Lgr5 expression": "inactive: 1.07"}
{"smiles": "[O-][Cl+3]([O-])([O-])O", "note": "[Sodium perchlorate monohydrate]", "cell-surface Lgr5 expression": "inactive: 1.03"}
{"smiles": "O=C1C[C@@H]2OCC=C3CN4CC[C@]56c7ccccc7N1[C@H]5[C@H]2[C@H]3C[C@H]46", "note": "[Strychnine]", "cell-surface Lgr5 expression": "inactive: 0.416"}
{"smiles": "CCC(=O)O[C@@](Cc1ccccc1)(c1ccccc1)[C@@H](C)CN(C)C", "note": "[Levopropoxyphene napsylate]", "cell-surface Lgr5 expression": "inactive: 0.856"}
{"smiles": "[O-][I+2]([O-])O", "note": "[Potassium iodate]", "cell-surface Lgr5 expression": "inactive: 1.14"}
{"smiles": "CN1C[C@H](C(=O)N[C@]2(C)O[C@@]3(O)[C@@H]4CCCN4C(=O)[C@H](Cc4ccccc4)N3C2=O)C[C@@H]2c3cccc4[nH]cc(c34)C[C@H]21", "note": "[Dihydroergotamine methanesulfonate]", "cell-surface Lgr5 expression": "inactive: 0.612"}
{"smiles": "O=C1NCN(c2ccccc2)C12CCN(CC1COc3ccccc3O1)CC2", "note": "(centres undefined) [Spiroxatrine]", "cell-surface Lgr5 expression": "inactive: 1.25"}
{"smiles": "C[N+]1(C)[C@@H]2CC[C@H]1C[C@@H](OC(=O)C(CO)c1ccccc1)C2", "note": "(some centres undefined) [Methylatropine nitrate (Atropine methyl nitrate)]", "cell-surface Lgr5 expression": "inactive: 0.695"}
{"smiles": "C[N+](C)(C)CCCCCCCCCC[N+](C)(C)C", "note": "[Decamethonium Bromide]", "cell-surface Lgr5 expression": "inactive: 1.27"}
{"smiles": "O=Cc1ccccc1", "note": "[Benzaldehyde]", "cell-surface Lgr5 expression": "inactive: 1.03"}
{"smiles": "COc1cccc(C2(O)CCCCC2CN(C)C)c1", "note": "(centres undefined) [Tramadol hydrochloride]", "cell-surface Lgr5 expression": "inactive: 1.07"}
{"smiles": "N.N.[Cl][Pt][Cl]", "note": "[Cisplatin]", "cell-surface Lgr5 expression": "inactive: 1.14"}
{"smiles": "CC(C)(O)C(Cl)(Cl)Cl", "note": "[Chlorobutanol]", "cell-surface Lgr5 expression": "inactive: 1.26"}
{"smiles": "CNc1ccc(C(=O)CC(O)CCC(C)C2OC(=O)CC(O)CC(=O)CC(O)CC(O)CC(O)CC(O)CC3(O)CC(O)C(C(=O)OC)C(CC(O[C@@H]4O[C@H](C)[C@@H](O)[C@H](N)[C@@H]4O)/C=C/C=C/C=C/C=C/C=C/C=C/C=C/C2C)O3)cc1.COC(=O)C1C(O)CC2(O)CC(O)CC(O)CC(O)CC(O)CC(=O)CC(O)CC(=O)OC(C(C)CCC(O)CC(=O)c3ccc(N)cc3)C(C)/C=C/C=C/C=C/C=C/C=C/C=C/C=C/C(O[C@@H]3O[C@H](C)[C@@H](O)[C@H](N)[C@@H]3O)CC1O2", "note": "(some centres undefined) [Mepartricin]", "cell-surface Lgr5 expression": "inactive: 0.888"}
{"smiles": "Nc1ccccc1C(=O)O", "note": "[Anthranilic acid (2-aminobenzoic acid)]", "cell-surface Lgr5 expression": "inactive: 1.13"}
{"smiles": "CCCCNCC(O)c1ccc(O)cc1", "note": "(centres undefined) [Bamethan sulfate (Bamethane)]", "cell-surface Lgr5 expression": "inactive: 1.33"}
{"smiles": "[Cl][Cr]([Cl])[Cl]", "note": "[Chromium (III) chloride]", "cell-surface Lgr5 expression": "inactive: 0.925"}
{"smiles": "COC(=O)c1ccccc1C(=O)OC", "note": "[Dimethyl phthalate]", "cell-surface Lgr5 expression": "inactive: 1"}
{"smiles": "CC(C)N(CCC(C(N)=O)(c1ccccc1)c1ccccn1)C(C)C", "note": "(centres undefined) [Disopyramide]", "cell-surface Lgr5 expression": "inactive: 1.13"}
{"smiles": "N[C@@H](Cc1ccc(N(CCCl)CCCl)cc1)C(=O)O", "note": "[Melphalan]", "cell-surface Lgr5 expression": "inactive: 1.14"}
{"smiles": "CO[C@@H]1[C@H](OC(=O)NC(=O)CCl)CC[C@]2(CO2)[C@H]1[C@@]1(C)O[C@@H]1CC=C(C)C", "cell-surface Lgr5 expression": "inactive: 1.29"}
{"smiles": "CN[C@@H]1C[C@@H](c2ccc(Cl)c(Cl)c2)c2ccccc21", "note": "[Indatraline hydrochloride]", "cell-surface Lgr5 expression": "inactive: 1.23"}
{"smiles": "C=CCC1=C(C)C(OC(=O)[C@@H]2[C@@H](C=C(C)C)C2(C)C)CC1=O", "note": "(some centres undefined) [Bioallethrin]", "cell-surface Lgr5 expression": "inactive: 1.32"}
{"smiles": "CN1[C@@H]2CC[C@H]1C[C@@H](OC(=O)[C@H](CO)c1ccccc1)C2", "note": "[L-Hyoscyamine hydrochloride]", "cell-surface Lgr5 expression": "inactive: 1.12"}
{"smiles": "CCCC(C)(COC(N)=O)COC(N)=O", "note": "[Meprobamate]", "cell-surface Lgr5 expression": "inactive: 0.458"}
{"smiles": "CCCN1CCC[C@@H]2Cc3nc(N)ncc3C[C@H]21", "note": "[Quinelorane dihydrochloride]", "cell-surface Lgr5 expression": "inactive: 0.977"}
{"smiles": "COc1ccc(OC)c(C(O)C(C)NC(C)(C)C)c1", "note": "(centres undefined) [Butoxamine hydrochloride]", "cell-surface Lgr5 expression": "inactive: 1.23"}
{"smiles": "CNC(C)Cc1ccc(O)cc1", "note": "(centres undefined) [Pholedrine (p Hydroxymethamphetamine)]", "cell-surface Lgr5 expression": "inactive: 1.1"}
{"smiles": "CCOP(=S)(OCC)SCSc1ccc(Cl)cc1", "note": "[Carbophenothion]", "cell-surface Lgr5 expression": "inactive: 1.03"}
{"smiles": "C=CCN=C=S", "note": "[Allyl isothiocyanate]", "cell-surface Lgr5 expression": "inactive: 0.99"}
{"smiles": "C=C[C@H]1CN2CC[C@H]1C[C@@H]2[C@@H](O)c1ccnc2ccccc12", "note": "[Cinchonine sulfate]", "cell-surface Lgr5 expression": "inactive: 1.25"}
{"smiles": "CC(Cc1ccc(O)cc1)NCC(O)c1cc(O)cc(O)c1", "note": "(centres undefined) [Fenoterol]", "cell-surface Lgr5 expression": "inactive: 1.13"}
